Laboratory results: EP4529921A1, “SUSTAINED RELEASE MICROPARTICLES AND PROCESS FOR THE PREPARATION THEREOF” (Pharmathen S.A., priority 2023, dated 2025)
At least one structure is not confirmed: it was looked up by name or label, or the drawing left a doubt.

Tested on: transfected HeLa cells
Assay: Subcellular localization of GFP-ERF in transfected HeLa cells after addition of release supernatant
Assay type: cell-based
Settings: 15 nM free substance; tested range 1-100 nM

Structure (SMILES): CC(=O)Nc1cccc(-n2c(=O)n(C3CC3)c(=O)c3c(Nc4ccc(I)cc4F)n(C)c(=O)c(C)c32)c1 [GSK1120212, Trametinib]
- effect of free substance compared with higher concentrations: no statistically significant difference
